These are yes or no findings as the source states them, for the method shown. For some assays here: Binding seen in cells or lysates may run through a third protein. Some results given as binding are weak or reduced against the parent protein; the word gives no strength. Where a sequence is shown, tags or fusion partners need not be part of it.

In article doi:10.1101/2021.12.21.473709 one finds binding data, which are given here for 4 molecules.

Test [1] addresses T1, ABI5/ABF interacting protein AFP2, GAL4 fusion for yeast two-hybrid (Arabidopsis) (UniProt Q9LMX5).
T1 sequence: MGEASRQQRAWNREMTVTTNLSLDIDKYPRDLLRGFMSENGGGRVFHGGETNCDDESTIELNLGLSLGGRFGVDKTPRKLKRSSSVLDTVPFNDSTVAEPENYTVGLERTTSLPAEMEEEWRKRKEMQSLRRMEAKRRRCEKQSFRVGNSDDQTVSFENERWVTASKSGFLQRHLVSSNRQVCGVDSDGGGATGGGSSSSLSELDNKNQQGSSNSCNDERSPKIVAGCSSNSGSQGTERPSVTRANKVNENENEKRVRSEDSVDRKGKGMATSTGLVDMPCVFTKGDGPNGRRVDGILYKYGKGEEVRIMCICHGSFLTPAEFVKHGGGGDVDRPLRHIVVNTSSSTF
The experiment in a line: two-hybrid.

The target in test [2] is T2, ABA-…(ABI)5, GAL4 fusion for yeast two-hybrid (Arabidopsis) (UniProt Q9SJN0).
T2 sequence: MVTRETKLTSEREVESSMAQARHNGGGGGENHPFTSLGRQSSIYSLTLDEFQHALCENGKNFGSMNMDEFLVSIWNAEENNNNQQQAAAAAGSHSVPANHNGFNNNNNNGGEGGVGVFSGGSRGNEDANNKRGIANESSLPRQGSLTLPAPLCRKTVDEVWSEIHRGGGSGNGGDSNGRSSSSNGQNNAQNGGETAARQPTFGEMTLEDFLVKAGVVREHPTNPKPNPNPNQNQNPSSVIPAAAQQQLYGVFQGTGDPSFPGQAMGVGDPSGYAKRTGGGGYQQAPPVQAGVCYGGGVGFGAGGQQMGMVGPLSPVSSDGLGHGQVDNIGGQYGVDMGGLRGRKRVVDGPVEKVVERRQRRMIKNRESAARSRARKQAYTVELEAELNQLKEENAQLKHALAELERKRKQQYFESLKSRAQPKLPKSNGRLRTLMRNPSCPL
As to the kind of experiment: two-hybrid.

For test [3], the target named is T3, ABI5, split YFP fusion (Arabidopsis) (UniProt Q9SJN0).
T3 sequence: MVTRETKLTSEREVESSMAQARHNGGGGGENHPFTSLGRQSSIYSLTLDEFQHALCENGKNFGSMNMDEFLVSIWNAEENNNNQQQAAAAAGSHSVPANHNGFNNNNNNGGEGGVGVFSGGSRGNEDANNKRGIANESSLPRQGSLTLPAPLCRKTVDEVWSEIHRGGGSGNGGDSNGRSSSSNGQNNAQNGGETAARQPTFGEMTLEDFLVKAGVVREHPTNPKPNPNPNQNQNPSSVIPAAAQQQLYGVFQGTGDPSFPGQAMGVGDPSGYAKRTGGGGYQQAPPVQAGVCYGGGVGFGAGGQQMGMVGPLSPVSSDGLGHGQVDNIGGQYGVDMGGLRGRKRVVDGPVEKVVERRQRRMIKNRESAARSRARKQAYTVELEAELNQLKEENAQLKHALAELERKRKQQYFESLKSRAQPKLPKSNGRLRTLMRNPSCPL
The experiment in a line: split reporter.

B1: ABI5/ABF interacting protein AFP1, GAL4 fusion for yeast two-hybrid (protein, UniProt Q9LQ98 1-345)
chain: MAEANERSKEMARSNSCVFPRDLLQRFISNSVEGEDDDEEEDDDEIELNLGLSLGGRFGVDKSNKLVRSSSVVVTMPLFREDHHHHQAAAMITTKVSTETVAGATRGTGLMRTTSLPAESEEEWRKRKEMQTLRRMAAKRRRSEKLRTGVGGGNSNNPEEAATATASRRRGRPSSGLPRWSATANKSGLLRQHSAGLDSLQVSGESLGGGRAAGSSSSVSELETKASSDEARSLPSTTQPQQETTTKPTNRLRRLSSVDMNMKMEPQGKGKSEMPCVFTKGDGPNGKRVDGILYRYGSGEEVRIMCVCHGDFLSPADFVKHAGGPHVDHPLRHIVVNTSSPSNLL
Turning to B1, the binding result in test [1] and in test [2] was “binds” in each case.

B2: AFP1, split YFP fusion (protein, UniProt Q9LQ98 1-345)
chain: MAEANERSKEMARSNSCVFPRDLLQRFISNSVEGEDDDEEEDDDEIELNLGLSLGGRFGVDKSNKLVRSSSVVVTMPLFREDHHHHQAAAMITTKVSTETVAGATRGTGLMRTTSLPAESEEEWRKRKEMQTLRRMAAKRRRSEKLRTGVGGGNSNNPEEAATATASRRRGRPSSGLPRWSATANKSGLLRQHSAGLDSLQVSGESLGGGRAAGSSSSVSELETKASSDEARSLPSTTQPQQETTTKPTNRLRRLSSVDMNMKMEPQGKGKSEMPCVFTKGDGPNGKRVDGILYRYGSGEEVRIMCVCHGDFLSPADFVKHAGGPHVDHPLRHIVVNTSSPSNLL
Consider B2, for which the binding result in test [3] is on record as “binds”.

B3: ABI5/ABF interacting protein AFP2, GAL4 fusion for yeast two-hybrid (protein, UniProt Q9LMX5 1-348)
chain: MGEASRQQRAWNREMTVTTNLSLDIDKYPRDLLRGFMSENGGGRVFHGGETNCDDESTIELNLGLSLGGRFGVDKTPRKLKRSSSVLDTVPFNDSTVAEPENYTVGLERTTSLPAEMEEEWRKRKEMQSLRRMEAKRRRCEKQSFRVGNSDDQTVSFENERWVTASKSGFLQRHLVSSNRQVCGVDSDGGGATGGGSSSSLSELDNKNQQGSSNSCNDERSPKIVAGCSSNSGSQGTERPSVTRANKVNENENEKRVRSEDSVDRKGKGMATSTGLVDMPCVFTKGDGPNGRRVDGILYKYGKGEEVRIMCICHGSFLTPAEFVKHGGGGDVDRPLRHIVVNTSSSTF
As to B3, the binding result in test [2] is on record as “binds”.

B4: AFP2, split YFP fusion (protein, UniProt Q9LMX5 1-348)
chain: MGEASRQQRAWNREMTVTTNLSLDIDKYPRDLLRGFMSENGGGRVFHGGETNCDDESTIELNLGLSLGGRFGVDKTPRKLKRSSSVLDTVPFNDSTVAEPENYTVGLERTTSLPAEMEEEWRKRKEMQSLRRMEAKRRRCEKQSFRVGNSDDQTVSFENERWVTASKSGFLQRHLVSSNRQVCGVDSDGGGATGGGSSSSLSELDNKNQQGSSNSCNDERSPKIVAGCSSNSGSQGTERPSVTRANKVNENENEKRVRSEDSVDRKGKGMATSTGLVDMPCVFTKGDGPNGRRVDGILYKYGKGEEVRIMCICHGSFLTPAEFVKHGGGGDVDRPLRHIVVNTSSSTF
B4: in test [3], the binding result is given as “binds”.
